Our source for the nuclei count values is the supplement of paper PMC8183993.

Counter-ions that a name gives are not always drawn. This list holds what a sample rich in lowest values left over.

The subject of this assay is U2OS. Kind of assay: nuclei count (viability) relative to DMSO (% of DMSO); higher = more viable cells. As to conditions: 10 µM; 24 h. The protocol: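 Primary image-based screen in U2OS cells: compounds at 10 uM for 24 h, then a 1 h o-propargyl-puromycin (OPP) pulse, click labelling, and high-throughput microscopy. Mean cytoplasmic OPP intensity and nuclei count were normalised to DMSO wells within each plate (DMSO = 100) and averaged over triplicate plates.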
For the compound `O=C1Nc2ccc(-c3cccnc3)cc2/C1=C/c1ccc[nH]1` [JAK3 Inhibitor VI], the nuclei count worked out at 44.4. As to `O=C1NC(=O)c2c1c(-c1ccccc1)cc1[nH]c3ccc(O)cc3c21`, the nuclei count is 46.3.

In turn, `Cc1ccccc1-n1c(Cn2nc(-c3cccc(O)c3)c3c(N)ncnc32)nc2cccc(C)c2c1=O` yielded a nuclei count of 103. As for `CN1C2CCC1CC(OC(=O)C(O)c1ccccc1)C2` (stereo unspecified) [Homatropine Bromide], the figure is 96; as for `Cc1nc2c(-c3cnc(N)nc3)nc(N3CCOCC3)nc2n1C(C)C`, 76.7. As for `CN1[C@@H]2CC[C@H]1C[C@@H](OC(=O)C(O)c1ccccc1)C2` (mixture of isomers) [Homatropine hydrobromide (R,S)], the figure is 91.5.
